From PMC10435519 come the findings set out here.

These are yes or no findings as the source states them, for the method shown. In cells and extracts the contact can be indirect. Binding can be weak; no strength is given.

The target of the assay is T1, PPARα (in HEK293T cells) (UniProt Q07869).
T1 sequence: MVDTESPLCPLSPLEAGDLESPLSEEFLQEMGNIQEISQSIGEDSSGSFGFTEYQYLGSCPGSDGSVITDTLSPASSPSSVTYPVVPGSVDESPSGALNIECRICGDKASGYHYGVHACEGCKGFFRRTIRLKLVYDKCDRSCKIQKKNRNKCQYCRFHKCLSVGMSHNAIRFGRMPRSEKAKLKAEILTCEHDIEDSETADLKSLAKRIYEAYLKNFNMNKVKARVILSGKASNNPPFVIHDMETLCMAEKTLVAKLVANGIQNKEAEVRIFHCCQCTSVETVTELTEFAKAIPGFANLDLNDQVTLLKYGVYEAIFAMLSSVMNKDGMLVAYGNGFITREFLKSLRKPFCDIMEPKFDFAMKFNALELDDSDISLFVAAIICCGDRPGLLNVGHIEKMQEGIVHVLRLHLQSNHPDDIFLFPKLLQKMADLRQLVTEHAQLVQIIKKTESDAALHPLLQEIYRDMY
In words: co-IP; HEK293T cells co-transfected with NCoR1 (WT or T1619A/T2124A) and PAK4; co-IP and immunoblot. (In general: A western blot detects proteins with antibodies after separation by electrophoresis.)

For “NCoR1 T1619A/T2124A double-mutant (mouse)”, the binding entry is reported as “binds”.
